Experimental data reported in PMC12596112.

Target: T1, TST-tagged ARGONAUTE 1 (TST–AGO1) (Arabidopsis thaliana) (UniProt O04379)
T1 sequence: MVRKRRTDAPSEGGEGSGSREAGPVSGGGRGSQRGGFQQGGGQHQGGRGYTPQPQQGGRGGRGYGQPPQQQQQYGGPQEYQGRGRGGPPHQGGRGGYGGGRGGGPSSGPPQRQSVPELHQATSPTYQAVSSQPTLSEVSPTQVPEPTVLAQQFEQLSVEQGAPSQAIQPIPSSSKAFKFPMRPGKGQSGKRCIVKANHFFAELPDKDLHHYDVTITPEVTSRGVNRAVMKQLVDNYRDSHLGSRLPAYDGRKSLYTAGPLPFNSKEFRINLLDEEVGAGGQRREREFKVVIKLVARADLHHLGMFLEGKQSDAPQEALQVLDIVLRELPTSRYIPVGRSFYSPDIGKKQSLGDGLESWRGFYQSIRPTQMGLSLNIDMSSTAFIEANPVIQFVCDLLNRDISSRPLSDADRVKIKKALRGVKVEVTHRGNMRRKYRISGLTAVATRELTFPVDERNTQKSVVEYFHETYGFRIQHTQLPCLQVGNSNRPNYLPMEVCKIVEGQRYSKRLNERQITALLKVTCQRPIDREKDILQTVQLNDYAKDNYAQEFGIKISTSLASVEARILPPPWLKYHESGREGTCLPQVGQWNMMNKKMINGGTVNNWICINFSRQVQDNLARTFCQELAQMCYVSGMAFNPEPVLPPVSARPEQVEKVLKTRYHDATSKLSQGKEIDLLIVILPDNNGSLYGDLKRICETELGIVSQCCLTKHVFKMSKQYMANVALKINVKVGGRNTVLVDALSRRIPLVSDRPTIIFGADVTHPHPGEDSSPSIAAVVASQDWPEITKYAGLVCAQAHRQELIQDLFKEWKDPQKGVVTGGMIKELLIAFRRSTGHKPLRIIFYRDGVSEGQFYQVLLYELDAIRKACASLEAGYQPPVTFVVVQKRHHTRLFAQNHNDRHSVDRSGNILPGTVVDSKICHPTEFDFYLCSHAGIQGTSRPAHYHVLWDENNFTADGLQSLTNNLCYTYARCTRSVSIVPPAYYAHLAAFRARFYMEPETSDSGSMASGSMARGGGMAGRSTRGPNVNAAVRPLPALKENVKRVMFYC
Assay: affinity purification with mass spectrometry; TST–AGO1 complexes from seedlings grown under Cu sufficiency (1 uM CuSO4) or Cu deficiency (100 uM BCS), purified on a Strep-Tactin XT spin column in native conditions; LC-MS/MS; proteins present in pAGO1:TST-GFP control purifications discarded

binding	Substance
binds	iron superoxide dismutase 1 (FeSOD1)
binds	peroxidase PRX32

These are yes or no findings as the source states them, for the method shown. Binding seen in cells or lysates may run through a third protein. Here binding means that the protein was enriched with, or labelled near, the bait; the list need not be complete. Tags and fused reporters may be left off the sequences shown.
